Results reported in PMC12484294.
Results are given in words; binding and its absence hold for the method and conditions named. Binding seen in cells or lysates may run through a third protein. Some results given as binding are weak or reduced against the parent protein; the word gives no strength.

Protein sequences, listed by entry. Tags and fused reporters are not part of them.
UniProt A0A8I3S4R3: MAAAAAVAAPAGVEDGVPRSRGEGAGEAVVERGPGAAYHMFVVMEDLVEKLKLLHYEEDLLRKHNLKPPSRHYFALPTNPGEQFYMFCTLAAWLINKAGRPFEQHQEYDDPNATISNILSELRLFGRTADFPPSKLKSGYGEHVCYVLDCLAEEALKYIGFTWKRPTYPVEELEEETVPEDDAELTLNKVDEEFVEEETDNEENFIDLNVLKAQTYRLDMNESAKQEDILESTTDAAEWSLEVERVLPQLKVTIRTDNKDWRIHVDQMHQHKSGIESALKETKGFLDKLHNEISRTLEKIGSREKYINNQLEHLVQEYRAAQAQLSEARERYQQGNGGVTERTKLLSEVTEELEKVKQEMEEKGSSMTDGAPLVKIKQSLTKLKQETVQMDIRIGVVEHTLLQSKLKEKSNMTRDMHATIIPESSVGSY

Molecular target: T1, ZO-2 (Zonula occludens-2) (dog (endogenous in MDCK)) (UniProt Q95168)
T1 sequence: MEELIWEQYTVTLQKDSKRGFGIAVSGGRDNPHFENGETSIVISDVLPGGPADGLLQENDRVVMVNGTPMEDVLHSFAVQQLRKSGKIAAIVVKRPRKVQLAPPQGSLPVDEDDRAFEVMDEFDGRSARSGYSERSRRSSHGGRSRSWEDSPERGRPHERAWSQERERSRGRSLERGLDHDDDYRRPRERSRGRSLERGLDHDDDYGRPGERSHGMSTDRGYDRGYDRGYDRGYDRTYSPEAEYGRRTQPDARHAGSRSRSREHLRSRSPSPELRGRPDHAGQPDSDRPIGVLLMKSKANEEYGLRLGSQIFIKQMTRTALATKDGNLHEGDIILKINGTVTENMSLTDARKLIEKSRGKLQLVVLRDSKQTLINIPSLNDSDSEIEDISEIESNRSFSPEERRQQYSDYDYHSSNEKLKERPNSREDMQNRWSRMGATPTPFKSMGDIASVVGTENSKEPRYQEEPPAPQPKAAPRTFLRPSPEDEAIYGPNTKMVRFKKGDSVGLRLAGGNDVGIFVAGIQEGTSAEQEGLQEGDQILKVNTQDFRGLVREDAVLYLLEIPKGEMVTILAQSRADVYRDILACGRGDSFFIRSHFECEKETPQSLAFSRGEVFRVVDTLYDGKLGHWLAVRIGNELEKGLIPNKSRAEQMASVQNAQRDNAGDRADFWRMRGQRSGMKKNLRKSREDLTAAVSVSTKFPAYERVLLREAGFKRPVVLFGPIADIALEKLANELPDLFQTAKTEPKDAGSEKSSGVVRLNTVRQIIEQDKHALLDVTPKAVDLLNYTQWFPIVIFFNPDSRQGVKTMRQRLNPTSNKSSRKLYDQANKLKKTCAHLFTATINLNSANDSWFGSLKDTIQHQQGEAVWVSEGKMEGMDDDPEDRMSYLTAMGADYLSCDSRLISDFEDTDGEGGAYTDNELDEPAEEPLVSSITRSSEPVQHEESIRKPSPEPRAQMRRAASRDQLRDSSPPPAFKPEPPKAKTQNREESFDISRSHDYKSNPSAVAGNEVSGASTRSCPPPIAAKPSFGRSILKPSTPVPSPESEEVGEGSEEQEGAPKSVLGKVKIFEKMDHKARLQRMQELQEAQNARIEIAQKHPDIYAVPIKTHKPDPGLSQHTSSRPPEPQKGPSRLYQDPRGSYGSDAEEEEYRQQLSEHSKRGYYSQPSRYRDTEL
Test: co-IP; ZO-2 immunoprecipitated with anti-ZO-2 (1 ul per 300 ug protein) from lysate of parental MDCK cells; buffer 50 mM Tris-HCl pH 7.5, 150 mM NaCl, 1% NP-40, protease inhibitors; Western blot of the precipitate; subconfluent or proliferating cells (KIF14, NuMA, p-Aurora, TPX2) or confluent cells (IFT57); pre-immune serum as control

binding: binds
Substance: IFT-B protein IFT57 (from UniProt A0A8I3S4R3 1-429)
